These are yes or no findings as the source states them, for the method shown. Some results given as binding are weak or reduced against the parent protein; the word gives no strength. For some assays here: Sequences can lack the tags named with a protein.

Chains of the proteins cited; added tags and fusions are not shown. Lines headed by an entry give the natural chain unless they say otherwise; changes in a name come on top. Residues count along the entry.
UniProt O43557: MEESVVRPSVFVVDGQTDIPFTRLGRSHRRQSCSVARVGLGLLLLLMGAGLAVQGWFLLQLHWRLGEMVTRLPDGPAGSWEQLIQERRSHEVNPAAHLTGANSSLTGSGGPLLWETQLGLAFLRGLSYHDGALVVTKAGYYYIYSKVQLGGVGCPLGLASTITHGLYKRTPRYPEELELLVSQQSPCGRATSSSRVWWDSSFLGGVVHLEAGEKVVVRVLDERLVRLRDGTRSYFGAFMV
UniProt P36941, residues 31-227: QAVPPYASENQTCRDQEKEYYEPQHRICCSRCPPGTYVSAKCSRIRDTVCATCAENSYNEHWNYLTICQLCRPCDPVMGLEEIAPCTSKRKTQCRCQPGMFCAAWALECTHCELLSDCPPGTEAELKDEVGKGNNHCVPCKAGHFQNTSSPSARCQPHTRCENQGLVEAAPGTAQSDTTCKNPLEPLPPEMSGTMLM
UniProt Q80WM9, residues 39-206: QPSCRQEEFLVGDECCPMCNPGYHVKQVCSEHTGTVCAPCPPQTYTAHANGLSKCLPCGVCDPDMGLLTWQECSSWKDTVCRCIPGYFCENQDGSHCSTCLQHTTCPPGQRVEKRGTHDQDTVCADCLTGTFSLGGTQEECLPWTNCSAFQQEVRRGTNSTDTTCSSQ

For test [1], the target named is Heterotrimeric human LIGHT 32L-214E/32S-214K (combination of LIGHT-S32L and LIGHT-E214K subunits) expressed on EL4 cells (human) (UniProt O43557). Briefly: flow cytometry, graded LTβR-Fc on EL4 cells expressing LIGHT variants. (In general: In flow cytometry, cells or beads pass a laser one at a time.)
Test [2] shares this target. Briefly: flow cytometry on EL4 cells expressing LIGHT variants.
In test [3] the target is Soluble human LIGHT (LIGHTt66), biotinylated and immobilized through Neutravidin on biotinylated, formalin-fixed EL4 cells (human) (UniProt O43557). Description: flow cytometry on LIGHT-decorated EL4 cells (EL4-NA-LIGHT), mouse HVEM-Fc 20 µg/ml.
In test [4] the target is Heterotrimeric human LIGHT 32L-214E/32S-214K (combination of LIGHT-S32L and LIGHT-E214K subunits) expressed on EL4 cells (human) (UniProt O43557). Description: flow cytometry, graded DcR3-Fc on EL4 cells expressing LIGHT variants.

On to “LTβR-Fc (human Lymphotoxin-β receptor Fc fusion) (from UniProt P36941 31-227)”, for which the binding entry in test [1] and in test [2] was “binds” each time.
“mouse HVEM-Fc (from UniProt Q80WM9 39-206) (Fc fusion)”: the binding result in test [3] is “binds”.

B1: DcR3-Fc (human Decoy Receptor 3 Fc fusion) (Fc fusion, UniProt O95407 30-300, looked up)
chain: VAETPTYPWRDAETGERLVCAQCPPGTFVQRPCRRDSPTTCGPCPPRHYTQFWNYLERCRYCNVLCGEREEEARACHATHNRACRCRTGFFAHAGFCLEHASCPPGAGVIAPGTPSQNTQCQPCPPGTFSASSSSSEQCQPHRNCTALGLALNVPGSSSHDTLCTSCTGFPLSTRVPGAEECERAVIDFVAFQDISIKRLQRLLQALEAPEGWGPTPRAGRAALQLKLRRRLTELLGAQDGALLVRLLQALRVARMPGLERSVRERFLPVH
notes: also called human DcR3; not shown: Fc part
As to B1, the binding entry in test [4] and in test [2] was “binds” throughout.

These data come from patent publication US20100136061A1 (LA JOLLA INSTITUTE FOR ALLERGY AND IMMUNOLOGY, published 2010).
